Measurements: publication PMC7265341, “Quantifying CDK inhibitor selectivity in live cells” (Nature Communications, 2020)
Values joined by “and” are separate entries in the source; they are usually repeats but may differ in a detail not shown here. Equal values may be shown once. This continues a long series; more values of the same kind are listed elsewhere.

The chains behind the UniProt entries cited, without tags or fusion partners. Where a name states a change or a piece, a line headed by the entry shows the natural chain unless it says otherwise.
UniProt P50613: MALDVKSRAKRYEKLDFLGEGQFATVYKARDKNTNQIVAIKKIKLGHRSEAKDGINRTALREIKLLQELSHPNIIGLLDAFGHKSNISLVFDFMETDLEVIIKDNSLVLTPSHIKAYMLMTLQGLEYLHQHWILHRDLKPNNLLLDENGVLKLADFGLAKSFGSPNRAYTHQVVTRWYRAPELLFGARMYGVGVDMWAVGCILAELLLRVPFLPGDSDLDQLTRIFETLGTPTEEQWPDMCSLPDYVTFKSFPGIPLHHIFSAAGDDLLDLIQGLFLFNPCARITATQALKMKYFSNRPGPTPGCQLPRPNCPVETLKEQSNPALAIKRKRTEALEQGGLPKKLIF
UniProt Q00534, whole entry: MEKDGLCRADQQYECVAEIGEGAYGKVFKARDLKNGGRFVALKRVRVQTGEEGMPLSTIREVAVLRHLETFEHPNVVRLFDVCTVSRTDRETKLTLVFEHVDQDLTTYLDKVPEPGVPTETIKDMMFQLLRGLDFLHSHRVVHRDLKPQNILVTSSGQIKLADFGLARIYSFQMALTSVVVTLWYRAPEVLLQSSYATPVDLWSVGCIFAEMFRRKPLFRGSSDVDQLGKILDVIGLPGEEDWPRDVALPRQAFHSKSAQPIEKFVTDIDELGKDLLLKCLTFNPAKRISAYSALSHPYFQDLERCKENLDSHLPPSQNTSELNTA

Columns and labels:
CDK7 = CDK7 (Homo sapiens, UniProt P50613); experiment: Intracellular residence time by cellular washout, CDK7; format: binding; details: Panel B; Time (Min) 233.996
Procedure: However, residence times for this and many of the other CDKi’s in our panel have not been reported in cell-free or cellular contexts. […] This condition was selected to ensure adequate target occupancy prior to compound washout. Residence time was then evaluated by a rapid compound washout procedure, followed by addition of energy transfer probe 1. Under these conditions, the rate of the energy transfer signal increase serves as a direct proxy for the loss of the target-CDKi interaction[18],[56],[57].
Residence time was qualitatively assessed via a cellular washout approach, where delayed energy probe association is used as an indirect measurement for the durability of target/compound engagement. […] After 2 h of incubation at 37 °C, the medium was aspirated from the cells and replaced with fresh OptiMEM containing NanoBRET NanoGlo Substrate and Extracellular NanoLuc Inhibitor. […] Occupancy values were plotted as a function of time.
Supplementary Figure 22. […] Residence […]
time was qualitatively assessed by cellular washout as described in the method details and compared to association of energy transfer probe in cells treated with DMSO vehicle. […]
engagement at CDK6 and kinetic selectivity for CDK6 compared to CDK2 and CDK7. BRET ratios were normalized between the maximum BRET value vs BRET value in the absence of tracer. Kinetic traces and individual points are mean of 3 independent experiments ± S.E.M (n = 3). Source data are provided as a […]

CDK6 = CDK6 (Homo sapiens, UniProt Q00534); experiment: Intracellular residence time by cellular washout, CDK6; format: binding; details: Panel B;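 further: NanoBRET cellular washout in live cells: compound preincubated 2 h at 37 °C, then removed, energy transfer probe association tracked over time versus DMSO vehicle, rising BRET indicating target release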

Structure (SMILES): COCCN1CCN(Cc2ccc(-c3n[nH]c4c3C(=O)c3c(NC(=O)NN5CCOCC5)cccc3-4)cc2)CC1 [RGB286638]
- CDK7 (CDK7): 83.2293 and 71.2925 and 74.5536
- CDK6 occupancy (%) over time after compound washout (CDK6; Time (Min) 38.9753): 66.3063 and 62.7586
- CDK6 occupancy (%) over time after compound washout (CDK6; Time (Min) 41.9753): 66.2602 and 65.9459 and 64.2529
- CDK6 occupancy (%) over time after compound washout (CDK6; Time (Min) 44.9758): 65.8537 and 65.4955 and 64.8276
- CDK6 occupancy (%) over time after compound washout (CDK6; Time (Min) 47.9761): 65.935 and 65.6757 and 62.9885
- CDK6 occupancy (%) over time after compound washout (CDK6; Time (Min) 50.9766): 65.4471 and 65.4955 and 62.7586
- CDK6 occupancy (%) over time after compound washout (CDK6; Time (Min) 53.9771): 65.4471 and 65.1351 and 65.2874
- CDK6 occupancy (%) over time after compound washout (CDK6; Time (Min) 56.9772): 65.3658 and 64.9549 and 60
- CDK6 occupancy (%) over time after compound washout (CDK6; Time (Min) 59.9777): 65.935 and 64.3243 and 61.3793
- CDK6 occupancy (%) over time after compound washout (CDK6; Time (Min) 62.9781): 65.2845 and 65.1351 and 63.2184
- CDK6 occupancy (%) over time after compound washout (CDK6; Time (Min) 65.9785): 65.4471 and 65.3153 and 60.5747
- CDK6 occupancy (%) over time after compound washout (CDK6; Time (Min) 68.9792): 64.9594 and 65.2252 and 60.5747
- CDK6 occupancy (%) over time after compound washout (CDK6; Time (Min) 71.9792): 65.2845 and 65.0451 and 59.7701
- CDK6 occupancy (%) over time after compound washout (CDK6; Time (Min) 74.9799): 66.5854 and 64.7748 and 60.1149
- CDK6 occupancy (%) over time after compound washout (CDK6; Time (Min) 77.9802): 66.1789 and 63.1531 and 60.4598
- CDK6 occupancy (%) over time after compound washout (CDK6; Time (Min) 80.9806): 65.6098 and 62.2522 and 61.2644
- CDK6 occupancy (%) over time after compound washout (CDK6; Time (Min) 83.9813): 65.935 and 62.4324 and 59.4253
- CDK6 occupancy (%) over time after compound washout (CDK6; Time (Min) 86.9817): 65.2845 and 62.0721 and 57.1264
- CDK6 occupancy (%) over time after compound washout (CDK6; Time (Min) 89.9825): 66.5854 and 60.991 and 58.046
- CDK6 occupancy (%) over time after compound washout (CDK6; Time (Min) 92.9826): 66.8293 and 61.1712 and 59.6552
- CDK6 occupancy (%) over time after compound washout (CDK6; Time (Min) 95.9831): 67.2358 and 60.991 and 61.3793
- CDK6 occupancy (%) over time after compound washout (CDK6; Time (Min) 98.9837): 66.748 and 60.9009 and 57.2414
- CDK6 occupancy (%) over time after compound washout (CDK6; Time (Min) 101.984): 66.9106 and 60.3604 and 57.8161
- CDK6 occupancy (%) over time after compound washout (CDK6; Time (Min) 104.984): 67.3984 and 60.6306 and 59.1954
- CDK6 occupancy (%) over time after compound washout (CDK6; Time (Min) 107.985): 67.2358 and 58.6487 and 58.6207
- CDK6 occupancy (%) over time after compound washout (CDK6; Time (Min) 110.985): 67.4797 and 58.4685 and 60.3448
- CDK6 occupancy (%) over time after compound washout (CDK6; Time (Min) 113.986): 66.9106 and 60.991 and 56.3218
- CDK6 occupancy (%) over time after compound washout (CDK6; Time (Min) 116.986): 68.2114 and 57.1171 and 56.4368
- CDK6 occupancy (%) over time after compound washout (CDK6; Time (Min) 119.987): 66.8293 and 56.6667 and 57.931
- CDK6 occupancy (%) over time after compound washout (CDK6; Time (Min) 122.987): 68.1301 and 56.1261 and 57.4713
- CDK6 occupancy (%) over time after compound washout (CDK6; Time (Min) 125.988): 68.1301 and 56.5766 and 52.7586
- CDK6 occupancy (%) over time after compound washout (CDK6; Time (Min) 128.988): 67.561 and 56.1261 and 54.4828
- CDK6 occupancy (%) over time after compound washout (CDK6; Time (Min) 131.988): 68.374 and 56.5766 and 52.7586
- CDK6 occupancy (%) over time after compound washout (CDK6; Time (Min) 134.989): 68.6179 and 57.7478 and 57.3563
- CDK6 occupancy (%) over time after compound washout (CDK6; Time (Min) 137.989): 68.6179 and 60.7207 and 55.1724
- CDK6 occupancy (%) over time after compound washout (CDK6; Time (Min) 140.99): 68.2927 and 64.8649 and 57.4713
- CDK6 occupancy (%) over time after compound washout (CDK6; Time (Min) 143.99): 67.8862 and 65.8559 and 58.2759
- CDK6 occupancy (%) over time after compound washout (CDK6; Time (Min) 146.99): 68.5366 and 66.3063 and 51.1494
- CDK6 occupancy (%) over time after compound washout (CDK6; Time (Min) 149.991): 68.2927 and 67.3874 and 57.7011
- CDK6 occupancy (%) over time after compound washout (CDK6; Time (Min) 152.992, listed as RGB-286638): 68.0488 and 66.5766 and 56.2069
- CDK6 occupancy (%) over time after compound washout (CDK6; Time (Min) 155.992): 68.5366 and 67.6577 and 47.3563
- CDK6 occupancy (%) over time after compound washout (CDK6; Time (Min) 158.992): 69.1057 and 66.5766 and 51.6092
- CDK6 occupancy (%) over time after compound washout (CDK6; Time (Min) 161.993): 68.374 and 66.8469 and 53.5632
- CDK6 occupancy (%) over time after compound washout (CDK6; Time (Min) 164.993): 69.0244 and 67.3874 and 56.8965
- CDK6 occupancy (%) over time after compound washout (CDK6; Time (Min) 167.994): 68.7805 and 66.7568 and 57.7011
- CDK6 occupancy (%) over time after compound washout (CDK6; Time (Min) 170.994): 68.0488 and 66.3063 and 50.1149
- CDK6 occupancy (%) over time after compound washout (CDK6; Time (Min) 173.995): 69.2683 and 67.2973 and 47.0115
- CDK6 occupancy (%) over time after compound washout (CDK6; Time (Min) 176.995, listed as RGB-286638): 69.6748 and 67.3874 and 59.5402
- CDK6 occupancy (%) over time after compound washout (CDK6; Time (Min) 179.995): 68.8618 and 66.9369 and 53.1035
- CDK6 occupancy (%) over time after compound washout (CDK6; Time (Min) 182.996): 68.1301 and 67.6577 and 55.8621
- CDK6 occupancy (%) over time after compound washout (CDK6; Time (Min) 185.996): 68.6992 and 66.7568 and 57.0115
- CDK6 occupancy (%) over time after compound washout (CDK6; Time (Min) 188.996): 69.0244 and 66.3964 and 53.7931
- CDK6 occupancy (%) over time after compound washout (CDK6; Time (Min) 191.996): 69.3496 and 66.3964 and 60.3448
- CDK6 occupancy (%) over time after compound washout (CDK6; Time (Min) 194.996): 68.5366 and 66.1261 and 58.8506
- CDK6 occupancy (%) over time after compound washout (CDK6; Time (Min) 197.996): 68.0488 and 65.2252 and 56.5517
- CDK6 occupancy (%) over time after compound washout (CDK6; Time (Min) 200.996): 68.9431 and 65.8559 and 54.4828
- CDK6 occupancy (%) over time after compound washout (CDK6; Time (Min) 203.996): 69.1057 and 66.1261 and 51.6092
- CDK6 occupancy (%) over time after compound washout (CDK6; Time (Min) 206.996): 68.0488 and 64.8649 and 55.8621
- CDK6 occupancy (%) over time after compound washout (CDK6; Time (Min) 209.996): 68.5366 and 65.3153 and 60.8046
- CDK6 occupancy (%) over time after compound washout (CDK6; Time (Min) 212.996): 68.0488 and 65.4955 and 54.2529
- CDK6 occupancy (%) over time after compound washout (CDK6; Time (Min) 215.996): 67.0732 and 64.1441 and 57.3563
- CDK6 occupancy (%) over time after compound washout (CDK6; Time (Min) 218.996): 68.1301 and 66.036 and 53.6782
- CDK6 occupancy (%) over time after compound washout (CDK6; Time (Min) 221.996): 67.0732 and 64.5946 and 49.0805
- CDK6 occupancy (%) over time after compound washout (CDK6; Time (Min) 224.996): 67.3171 and 64.7748 and 58.046
- CDK6 occupancy (%) over time after compound washout (CDK6; Time (Min) 227.996): 66.6667 and 63.964 and 55.2874
- CDK6 occupancy (%) over time after compound washout (CDK6; Time (Min) 230.996): 66.748 and 63.964 and 53.4483
- CDK6 occupancy (%) over time after compound washout (CDK6; Time (Min) 233.996): 66.5041 and 63.4234 and 55.0575
